Laboratory results published in PubChem BioAssay AID651768 (National Center for Advancing Translational Sciences (NCATS), 2012).
Where “and” joins values, the source holds several entries; their conditions need not be identical. Identical values can stand only once. Screen size: about 360,000 compounds; about 1,700 (0.47%) were called active. This list was built around the results that the source calls inconclusive (neither active nor inactive); the mix of calls is not that of the screen. Calls come from the whole dose curve; as a rule, active = well fitted inhibition curve with a large enough effect; inconclusive = small, poorly fitted or top-dose-only effect; inactive = no such curve, though single readings can be large or run the other way. Where the call is inconclusive, the potency comes from a doubtful curve fit.
% is set by controls: 0 for no effect and ±100 for the full control effect; potency is the fitted concentration of half-maximal effect.
Note: nearly all actives have a fitted effect of over 55% in size.

The chains behind the UniProt entries cited, without tags or fusion partners.
UniProt Q14191, whole entry, looked up: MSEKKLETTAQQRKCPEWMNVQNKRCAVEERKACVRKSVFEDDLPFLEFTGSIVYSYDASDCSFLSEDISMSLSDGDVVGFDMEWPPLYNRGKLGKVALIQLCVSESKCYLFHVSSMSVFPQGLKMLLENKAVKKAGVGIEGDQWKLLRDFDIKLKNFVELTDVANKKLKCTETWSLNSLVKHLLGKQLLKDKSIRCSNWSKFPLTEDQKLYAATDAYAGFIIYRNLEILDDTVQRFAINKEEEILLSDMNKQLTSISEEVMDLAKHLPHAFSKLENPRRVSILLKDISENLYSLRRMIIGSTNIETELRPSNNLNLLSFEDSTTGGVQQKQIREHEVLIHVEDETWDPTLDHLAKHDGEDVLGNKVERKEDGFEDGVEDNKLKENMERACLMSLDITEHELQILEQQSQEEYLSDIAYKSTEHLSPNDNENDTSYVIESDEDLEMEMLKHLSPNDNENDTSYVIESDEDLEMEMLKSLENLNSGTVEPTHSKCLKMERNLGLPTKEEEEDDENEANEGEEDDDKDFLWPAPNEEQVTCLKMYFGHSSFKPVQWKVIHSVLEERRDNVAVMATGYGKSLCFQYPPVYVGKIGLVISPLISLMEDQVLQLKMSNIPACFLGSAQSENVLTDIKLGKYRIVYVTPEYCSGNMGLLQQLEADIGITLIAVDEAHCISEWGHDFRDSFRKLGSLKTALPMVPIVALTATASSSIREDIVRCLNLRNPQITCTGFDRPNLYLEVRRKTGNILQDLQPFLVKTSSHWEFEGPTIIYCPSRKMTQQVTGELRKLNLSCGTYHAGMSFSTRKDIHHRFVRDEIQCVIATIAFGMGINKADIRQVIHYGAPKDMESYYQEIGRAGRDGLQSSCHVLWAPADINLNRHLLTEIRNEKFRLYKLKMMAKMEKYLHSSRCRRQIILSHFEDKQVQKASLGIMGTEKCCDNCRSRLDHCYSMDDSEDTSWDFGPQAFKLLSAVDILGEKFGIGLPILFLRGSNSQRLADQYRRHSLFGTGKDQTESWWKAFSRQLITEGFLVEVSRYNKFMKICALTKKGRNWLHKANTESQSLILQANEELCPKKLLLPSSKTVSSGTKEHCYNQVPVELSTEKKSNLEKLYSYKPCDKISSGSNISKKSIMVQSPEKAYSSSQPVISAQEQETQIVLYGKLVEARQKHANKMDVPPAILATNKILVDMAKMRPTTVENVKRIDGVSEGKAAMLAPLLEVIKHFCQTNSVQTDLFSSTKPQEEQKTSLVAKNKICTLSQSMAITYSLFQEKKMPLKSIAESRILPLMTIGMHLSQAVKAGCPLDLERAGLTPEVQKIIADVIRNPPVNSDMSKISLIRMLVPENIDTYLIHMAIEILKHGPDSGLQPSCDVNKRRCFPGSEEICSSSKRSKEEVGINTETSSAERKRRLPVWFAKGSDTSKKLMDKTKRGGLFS

These molecules were tested against Bifunctional 3'-5' exonuclease/ATP-dependent helicase WRN (Homo sapiens) (UniProt Q14191) (assay: qHTS for Inhibitors of WRN Helicase). Conditions: WRN helicase unwinding, fluorescent forked duplex, kinetic; activity change, negative = inhibition: at 114 µM (top of the series) unless noted.
Summary of the method: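 WRN at 20 nM final preincubated with compound 15 min at room temperature; reaction started with 100 nM fluorophore/quencher forked duplex oligonucleotide and 2 mM ATP final. Unwinding followed kinetically by red fluorescence (ex 525, em 598 nm).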
For `CN(C)c1ccc(/C=C/c2ccc3c4ccccc4ccc3[n+]2-c2ccccc2)cc1`, the Potency was active: 12.6 µM. In the case of `Cc1ccc2c(c1)[nH]c1c(N3CCN(Cc4ccccc4)CC3)ncnc12`, the Potency is reported as inconclusive: 56.2 µM [inhibitor, partial curve]. With `Cc1cc(C(=O)OCC(=O)NC2CCCC2)c2ccccc2n1` the “activity change, negative = inhibition” value was inactive: 3.58%. With `COc1cc(/C=C(\C#N)c2[nH]nc(N)c2C#N)cc(OC)c1O` the Potency was inconclusive: 39.8 µM [inhibitor, partial curve]. For `Cc1ccc(Nc2c([N+](=O)[O-])c(=O)n(C)c3ccccc23)cc1`, the Potency was inconclusive: 28.2 µM [inhibitor, single point]. In the case of `Cc1ccc(/C=c2\sc3nc(-c4cccnc4)nn3c2=O)cc1`, the Potency is reported as inconclusive: 79.4 µM [inhibitor, partial curve]. In the case of `CC1Cc2ccccc2N1C(=O)CNc1cccc(S(=O)(=O)N2CCCC2)c1` (stereo unspecified), the Potency is reported as inconclusive: 89.1 µM [inhibitor, single point]. `CN1/C(=C\C=C2/C(=O)Oc3ccccc3C2=O)C(C)(C)c2ccccc21` was tested, and the Potency was active: 26.7 µM. In the case of `O=C1/C(=C/c2cccnc2)Sc2ccccc21`, the Potency is reported as inconclusive: 35.5 µM [inhibitor, partial curve]. With `O=C1C=CC(=O)N1c1cccc2cccnc12` the activity change, negative = inhibition was inconclusive: -48.3% [inhibitor]. With `Oc1ccc(/C=N/Nc2ccc(Cl)nn2)c(O)c1O` the Potency was inconclusive: 56.2 µM [inhibitor, partial curve]. `Cc1ccc(CN2CCC(n3nccc3NC(=O)c3ccc4c(c3)OCO4)CC2)o1` was tested, and the Potency was inconclusive: 89.1 µM [inhibitor, single point]. `COc1ccccc1NC(=O)c1ccc(Br)c(S(=O)(=O)N2CCCC2)c1` was tested, and the Potency was inconclusive: 39.8 µM [inhibitor, single point]. For `Cc1ccc(N=Nc2ccc(O)c3ncccc23)cc1`, the “activity change, negative = inhibition” value was inactive: -7.51%. With `CC1CCN(S(=O)(=O)N2CCCC(C(=O)NCc3ccc(F)cc3)C2)CC1` (stereo unspecified) the Potency was inconclusive: 44.7 µM [inhibitor, partial curve]. In the case of `C[N+](C)(CCCCCC[N+](C)(C)CCCN1C(=O)c2cccc3cccc(c23)C1=O)CCCN1C(=O)c2cccc3cccc(c23)C1=O`, the Potency is reported as active: 44.7 µM. For `CCCCN(C(=O)c1cc(-c2ccco2)nc2ccccc12)c1c(N)n(CCCC)c(=O)[nH]c1=O`, the Potency was inconclusive: 50.1 µM [inhibitor, partial curve]. For `O=C(O)C1CC(=O)N(c2ccc3c(c2)OCCO3)C1` (stereo unspecified), the “activity change, negative = inhibition” value was inactive: -18.1%. `N#Cc1cccc(N=Cc2c(O)ccc3ccccc23)c1` was tested, and the Potency was inconclusive: 79.4 µM [inhibitor, single point]. With `COC(=O)c1c(C)[nH]c(C(=O)CSc2ccc(Cl)cc2)c1C` the activity change, negative = inhibition was inconclusive: -38.4% [inhibitor] [at 57.1 µM]. In the case of `O=C(O)c1cc(N=Nc2c(O)[nH]c3ccc([N+](=O)[O-])cc23)ccc1Cl`, the Potency is reported as inconclusive: 79.4 µM [inhibitor, partial curve]. With `CC(C)c1ccc(OCc2ccc(C(=O)N(C)C)o2)cc1` the “activity change, negative = inhibition” value was inactive: 15.7%. In the case of `NC(=O)c1nsc(C(=O)N(CC(=O)NCc2ccc3c(c2)OCO3)C2CCCCC2)c1N`, the “activity change, negative = inhibition” value is reported as inactive: 2.54%. With `CCNc1c(C(=O)O)ccc2c1C(=O)c1ccccc1C2=O` the Potency was inconclusive: 28.2 µM [inhibitor, single point]. `O=C1NC[C@@H](CCCCN2C[C@H](Cc3ccccc3)N(CCC3CCCCC3)C(=O)C2=O)N(CCc2ccc(O)cc2)C1=O` was tested, and the “activity change, negative = inhibition” value was inactive: -5.13%. In the case of `O=C(Nc1cccc(Cl)c1)c1ccccc1`, the “activity change, negative = inhibition” value is reported as inactive: -4.13%. `O=C1NN(c2ccc(F)cc2)C(=O)/C1=C\C=C\c1ccco1` was tested, and the Potency was inconclusive: 50.1 µM [inhibitor, partial curve]. For `COc1ccc2[nH]cc(CC(=O)O)c2c1`, the “activity change, negative = inhibition” value was inactive: -0.0787%. With `CCOC(=O)c1ccc(NC(=S)N2CCN(Cc3ccccc3)CC2)cc1` the Potency was inconclusive: 22.4 µM [inhibitor, single point]. For `O=C(c1cccs1)c1no[n+]([O-])c1C(=O)c1cccs1`, the Potency was active: 28.2 µM. `Cc1ccc(NC(=O)CN(c2ccccc2)S(=O)(=O)N(C)C)cc1C` was tested, and the “activity change, negative = inhibition” value was inactive: -14.2% [at 57.1 µM]. With `O=C(CN1CCN(CC(=O)Nc2ccc3c(c2)OC2(CCCCC2)O3)CC1)Nc1cccc(F)c1` the Potency was inconclusive: 28.2 µM [inhibitor, single point]. For `O=C(CSc1ncnc2ccccc12)Nc1ccc2c(c1)OCCO2`, the Potency was inconclusive: 89.1 µM [inhibitor, single point]. In the case of `Cc1cc(C)c2nc(-c3ccccn3)cc(C(=O)Nc3ccc(S(=O)(=O)Nc4onc(C)c4C)cc3)c2c1`, the Potency is reported as active: 39.8 µM. With `Nc1nn2c(C(F)(F)F)cc(=O)[nH]c2c1N=Nc1cccc(F)c1` the “activity change, negative = inhibition” value was inactive: 4.28%. With `CC1C=CCC2C(=O)N(c3cccc(C(=O)Nc4ccc(Br)cc4)c3)C(=O)C12` (stereo unspecified) the Potency was inconclusive: 39.8 µM [inhibitor, full curve, poor fit]. `COc1ccc(/C=N/c2c(-c3ccco3)nc3ccccn23)cc1OC` was tested, and the Potency was inconclusive: 56.2 µM [inhibitor, partial curve]. With `Cc1occc1C(=O)N/N=C/C=C/c1ccc(N(C)C)cc1` the “activity change, negative = inhibition” value was inactive: -0.414%. For `COCCN=c1scc(-c2ccco2)n1/N=C/c1ccc(O)c(O)c1O`, the Potency was active: 28.2 µM. `CCN(CCO)C(=O)CC(c1ccccc1)c1cc(Br)ccc1O` (stereo unspecified) was tested, and the activity change, negative = inhibition was inconclusive: -41.6% [inhibitor] [at 57.1 µM]. For `O=C(Nc1cc(S(=O)(=O)N2CCCCC2)ccc1Cl)C1COc2ccccc2O1` (stereo unspecified), the Potency was inconclusive: 20 µM [inhibitor, single point]. In the case of `O=C(NC(=S)NNC(=O)c1ccco1)c1ccccc1`, the “activity change, negative = inhibition” value is reported as inactive: 8.73%. `COc1ccc(/C=N/NC(=O)c2ccc(C)cc2)cc1CN1CCN(c2ccc(F)cc2)CC1` was tested, and the “activity change, negative = inhibition” value was inactive: 1.85%. `O=C(O)c1cc2c(o1)CCC/C2=N\O` was tested, and the “activity change, negative = inhibition” value was inactive: -0.185%. With `[O-][n+]1c2ccccc2[n+]([O-])c2cc(O)ccc21` the Potency was inconclusive: 50.1 µM [inhibitor, partial curve]. With `C/C(N)=C(/C#N)C(=O)CSc1nnc(Nc2cccc(C)c2)s1` the Potency was inconclusive: 44.7 µM [inhibitor, partial curve] and inconclusive: 25.1 µM [inhibitor, full curve].
